# Primary screen of a compound library

Protein sequences, listed by entry. Tags and fused reporters are not part of them. Residues count along the entry.
UniProt Q4DA54, 1-478: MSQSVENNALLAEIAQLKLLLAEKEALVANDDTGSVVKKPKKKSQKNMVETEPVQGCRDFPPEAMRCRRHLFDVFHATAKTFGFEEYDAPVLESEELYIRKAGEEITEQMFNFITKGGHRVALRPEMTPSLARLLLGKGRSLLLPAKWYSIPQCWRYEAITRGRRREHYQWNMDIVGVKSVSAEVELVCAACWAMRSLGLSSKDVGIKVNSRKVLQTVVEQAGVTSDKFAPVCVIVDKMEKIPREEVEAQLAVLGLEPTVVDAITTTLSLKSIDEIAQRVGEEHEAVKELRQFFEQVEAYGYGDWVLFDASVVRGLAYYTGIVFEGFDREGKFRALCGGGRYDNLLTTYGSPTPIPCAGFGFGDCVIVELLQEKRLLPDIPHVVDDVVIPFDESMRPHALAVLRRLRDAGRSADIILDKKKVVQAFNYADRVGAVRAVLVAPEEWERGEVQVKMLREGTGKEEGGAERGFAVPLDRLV
UniProt P9WNZ1, whole entry: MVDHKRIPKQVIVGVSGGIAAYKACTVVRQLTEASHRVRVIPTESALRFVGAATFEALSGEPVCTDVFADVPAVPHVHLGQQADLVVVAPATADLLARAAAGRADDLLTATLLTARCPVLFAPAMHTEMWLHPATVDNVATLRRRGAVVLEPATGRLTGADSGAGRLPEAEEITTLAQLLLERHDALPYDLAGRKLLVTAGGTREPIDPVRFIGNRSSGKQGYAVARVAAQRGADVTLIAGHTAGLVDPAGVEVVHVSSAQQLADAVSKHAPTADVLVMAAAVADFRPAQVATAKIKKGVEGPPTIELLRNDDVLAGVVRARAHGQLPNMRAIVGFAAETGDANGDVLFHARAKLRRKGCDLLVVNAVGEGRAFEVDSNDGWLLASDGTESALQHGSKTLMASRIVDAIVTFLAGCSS

The values are deposited in ChEMBL (CHEMBL3988442, “University of Dundee, Small-Polar-MMV Screening Library” (2021)).

Toxoplasma: 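Assay of Toxoplasma gondii numbers, read through their beta-galactosidase reporter with a colour substrate. Compounds at 10 µM. Higher reads as fewer parasites (inferred from which compounds were picked for retests). Size under these conditions: about 67,000 compounds, about 260 of them at 50% or above in at least one test.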
TcHisRS: 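Histidine-tRNA ligase, Trypanosoma cruzi CL Brener (UniProt Q4DA54). Enzyme assay of histidyl-tRNA synthetase; the read-out is not stated. Tested at 30 µM. The record gives no direction; compounds that gave an IC50 in retests scored well above the rest, so higher reads as stronger inhibition. About 69,000 compounds were tested under these conditions; 0.045% (about 31) showed 50% or more at least once.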
CoaBC: 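Enzyme assay of CoaBC with a phosphate dye (Biomol Green) read at 650 nm. Target: Coenzyme A biosynthesis protein CoaBC, Mycobacterium tuberculosis (UniProt P9WNZ1). Concentration: 30 µM. Direction is inferred from only a few compounds that gave an IC50; most scored high, so higher reads as stronger inhibition. Most strong results did not repeat in a second test. Size under these conditions: about 67,000 compounds, about 40 of them at 50% or above in at least one test.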
Leishmania in macrophages: 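Cell assay of Leishmania donovani living inside macrophages; the read-out is not stated. Concentration: 30 µM. The record gives no direction; compounds that gave an IC50 in retests scored well above the rest, so higher reads as stronger inhibition. Size under these conditions: about 69,000 compounds, about 1,000 of them at 50% or above in at least one test.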

Results are given as percent effect.
How 0% and 100% were set is not recorded. Most values in the screen are low, and negative values occur.
Compounds were drawn at random from those tested, without regard to their results.
Two or more numbers in one place are separate tests of the same structure; such repeats can differ widely.
A dash means the value is not listed here; it may have been measured.

{"compound": "CCCS(=O)(=O)NC(=O)c1cc(C)n(-c2ccccc2)n1", "Toxoplasma": 3.686, "TcHisRS": -1.478, "CoaBC": -1.935, "Leishmania in macrophages": -33.99}
{"compound": "Cc1nc2ccc(C(=O)N3CCN(CCO)[C@@H]4CS(=O)(=O)C[C@@H]43)cc2o1", "TcHisRS": 9.412, "CoaBC": 3.194}
{"compound": "N#Cc1ccc(S(=O)(=O)Nc2ccc(N3CCOCC3)cn2)cc1", "Toxoplasma": 4.518, "TcHisRS": 8.374, "CoaBC": 0.3226, "Leishmania in macrophages": 27.38}
{"compound": "COCC(=O)NCc1ccc(-c2ccccc2C(=O)O)cn1", "Toxoplasma": -10.61, "TcHisRS": 1.429, "CoaBC": 1.37, "Leishmania in macrophages": 17.77}
{"compound": "CCC[C@H]1CN(C(=O)c2ccc3[nH]c(CO)nc3c2)C[C@@H]1N", "Toxoplasma": -5.19, "TcHisRS": 9.453, "CoaBC": 6.901, "Leishmania in macrophages": 5.18}
{"compound": "Cc1nc(C)n(CC2CCCCN2CCCS(=O)(=O)N(C)C)n1", "stereo": "stereo not shown", "Toxoplasma": -4.501, "TcHisRS": -4.167, "CoaBC": 10.87, "Leishmania in macrophages": 11.81}
{"compound": "CC(C)n1nc2c(cc1=O)CN(Cc1ccc(-n3cccn3)cc1)CC2", "Toxoplasma": -2.97, "TcHisRS": 16.13, "CoaBC": 1.691, "Leishmania in macrophages": 14.32}
{"compound": "Cc1nnc(C(C)N2CCc3[nH]c4ccc(Cl)cc4c3C2)o1", "stereo": "stereo not shown", "Toxoplasma": 15.08, "TcHisRS": 17, "CoaBC": -12.73, "Leishmania in macrophages": 10.04}
{"compound": "O=C(O)C(F)(F)F.O=C(O)C(F)(F)F.O=C(O)C(F)(F)F.c1cncc(COCC2CN(Cc3cccnc3)Cc3ccnn3C2)c1", "stereo": "stereo not shown", "Toxoplasma": -0.3067, "Leishmania in macrophages": -3.302}
{"compound": "Cc1cnc(CN(C)C2CCN(Cc3nc4ccccc4n3C)C2)o1", "stereo": "stereo not shown", "Toxoplasma": -0.9104, "TcHisRS": 6.415, "CoaBC": -2.738, "Leishmania in macrophages": 57.21}
{"compound": "Cc1ccc(-c2nnc(CN3CCOC(Cn4cncn4)C3)o2)cc1", "stereo": "stereo not shown", "Toxoplasma": 10.03, "TcHisRS": 4, "CoaBC": 1.05, "Leishmania in macrophages": 19.3}
{"compound": "O=C(O)[C@@H]1CN(C(=O)c2ccc(O)cc2)C[C@H]1c1cccc(F)c1", "Toxoplasma": 21, "TcHisRS": 12.06, "CoaBC": 8.885, "Leishmania in macrophages": 6.486}
{"compound": "Cc1ccc(CC2CCCN(S(C)(=O)=O)C2)nc1", "stereo": "stereo not shown", "Toxoplasma": 18.64, "TcHisRS": 0, "CoaBC": 1.214, "Leishmania in macrophages": "10.66 & 12.54"}
{"compound": "Cc1cc(F)ccc1OC1(C(=O)O)CCN(Cc2nccn2C)CC1", "Toxoplasma": -2.93, "TcHisRS": 2.186, "CoaBC": 4.139, "Leishmania in macrophages": 7.524}
{"compound": "CSc1nsc(NC(=O)N(C)Cc2ccc3c(c2)OCO3)n1", "Toxoplasma": 6.196, "TcHisRS": 3.867, "CoaBC": 3.949, "Leishmania in macrophages": 18.76}
{"compound": "[H][C@@]12CCN(Cc3ccco3)C[C@@]1([H])O[C@H](C(=O)N1CCCO1)C2", "Toxoplasma": -6.546, "Leishmania in macrophages": "12.78 & 12.73"}
{"compound": "CNC(=O)[C@@]12CCO[C@@H]1CCN(S(=O)(=O)c1ccc(C)cc1)C2", "TcHisRS": -6.122, "CoaBC": 0.618}
{"compound": "O=C(O)C(F)(F)F.[H][C@@]12CCN(C(=O)CC(C)C)CC[C@]1(C(=O)N1CCOCC1)CCN2CC", "Toxoplasma": -5.086, "Leishmania in macrophages": -0.4855}
{"compound": "CCc1nccn1-c1cncc(C2CCCN2Cc2ccccn2)n1", "stereo": "stereo not shown", "Toxoplasma": -0.7182, "TcHisRS": 8.791, "CoaBC": 2.184, "Leishmania in macrophages": "2.869 & 16.22"}
{"compound": "CCOc1ccc(NS(=O)(=O)c2cc(C)c(C(=O)O)s2)cc1F", "Toxoplasma": -3.652, "TcHisRS": 10.47, "CoaBC": 2.146, "Leishmania in macrophages": 12.91}
{"compound": "Cc1nn(C)c(N2CCOCC2)c1CNC(C)c1cccnc1", "stereo": "stereo not shown", "Toxoplasma": -3.664, "TcHisRS": 2.439, "CoaBC": 3.797, "Leishmania in macrophages": 14.18}
{"compound": "CC[C@@H]1N(CC2CCC2)CCC[C@]12CCC(=O)N2Cc1ccncc1", "Toxoplasma": -7.655, "TcHisRS": 5.825, "CoaBC": 5.792, "Leishmania in macrophages": 22.69}
{"compound": "CN1[C@H]2CC[C@@H]1CN(C(=O)c1nnc3n1CCCC3)CC2", "TcHisRS": 3.571, "CoaBC": 0.9804}
{"compound": "O=C(Cn1ccc2ccc(Br)cc21)NC[C@@H]1CCCN2CCCC[C@H]12", "TcHisRS": 2.732, "CoaBC": 2.826}
{"compound": "COCC1CN(Cc2ccoc2)Cc2nn(C)cc21.O=C(O)C(F)(F)F", "stereo": "stereo not shown", "Toxoplasma": -1.706, "Leishmania in macrophages": 17.65}
{"compound": "CN(C)C1CC2(CCN(C(=O)c3csnn3)CC2)c2ccccc21", "stereo": "stereo not shown", "TcHisRS": 7.65, "CoaBC": -15.03}
{"compound": "CCOCc1ncn2c1CN(C(=O)Nc1ccccc1)CC2", "Toxoplasma": 13.95, "TcHisRS": 8, "CoaBC": -0.6588, "Leishmania in macrophages": 7.558}
{"compound": "Cc1cccc(C(=O)N2CCCCC2c2ccc(CN(C)C)cc2)c1", "stereo": "stereo not shown", "Toxoplasma": -1.724, "TcHisRS": 2.041, "CoaBC": -17.46, "Leishmania in macrophages": 10.48}
{"compound": "F[C@@H]1CN(Cc2cccnc2)C[C@@H]1OCc1nc2ccccc2[nH]1", "Toxoplasma": 3.247, "TcHisRS": 0.4975, "CoaBC": 11.98, "Leishmania in macrophages": 40.77}
{"compound": "Cc1cccc(C(=O)N(C)Cc2cc(Br)cs2)n1", "Toxoplasma": 4.877, "TcHisRS": 2.174, "CoaBC": 5.803, "Leishmania in macrophages": 14.24}
{"compound": "COc1ccc(N2CCC(NC(=O)c3ccc(C#N)cc3)CC2)cc1", "Toxoplasma": -13.07, "TcHisRS": 9.045, "CoaBC": 4.531, "Leishmania in macrophages": 1.652}
{"compound": "Cc1cnc(N2CC(C(=O)N3CCOCC3)C3(CCOCC3)C2)nc1", "stereo": "stereo not shown", "Toxoplasma": -8.482, "TcHisRS": 5.882, "CoaBC": -0.4167, "Leishmania in macrophages": 0.6566}
{"compound": "O=C(Cn1nc(-c2ccc(F)cc2)oc1=O)NCc1ccc(F)cc1", "Toxoplasma": 16.37, "TcHisRS": 4.183, "CoaBC": 2.926, "Leishmania in macrophages": -21.26}

Some entries from above, unchanged:

Compound	Toxoplasma	TcHisRS	CoaBC	Leishmania in macrophages
N#Cc1ccc(S(=O)(=O)Nc2ccc(N3CCOCC3)cn2)cc1	4.518	8.374	0.3226	27.38
CN1[C@H]2CC[C@@H]1CN(C(=O)c1nnc3n1CCCC3)CC2	-	3.571	0.9804	-
Cc1cnc(CN(C)C2CCN(Cc3nc4ccccc4n3C)C2)o1 (stereo not shown)	-0.9104	6.415	-2.738	57.21